Some test systems named below: OVCAR3; OVCAR4; Kuramochi.
Holding throughout (test): drug sensitivity score (DSS2, cytotoxicity, CellTox Green); higher = more cytotoxic / more sensitive; extreme values may be limits of the assay
What all share (conditions): 72 h; doses 0.5, 1, 5 µM

Where a name gives a salt, the structure may show the parent alone. Several reference drugs read as weak here; read low effects with care.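 The three lines are all high-grade serous ovarian cancer cells with differing chemosensitivity; OVCAR3 is described as chemosensitive. Toxicity was normalized between DMSO vehicle wells and fully lysed wells, the score comes from a fitted multi-dose response curve, and a score above 5 was counted as drug sensitivity.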

The source of these data is the supplement of paper PMC12593923.

Take `COc1ccc(C2=N[C@H](c3ccc(Cl)cc3)[C@H](c3ccc(Cl)cc3)N2C(=O)N2CCNC(=O)C2)c(OC(C)C)c1` [Nutlin-3b]: the drug sensitivity score in the assay with OVCAR3, in the assay on OVCAR4 and in the assay with Kuramochi was 0 DSS each time.
With `O=c1[nH]cc(F)c(=O)[nH]1` [5-Fluorouracil], the drug sensitivity score in the assay on OVCAR3, with OVCAR4 and with Kuramochi was 0 DSS in each case.
As for `CS(=O)(=O)CCNCc1ccc(-c2ccc3ncnc(Nc4ccc(OCc5cccc(F)c5)c(Cl)c4)c3c2)o1` [Lapatinib (ditosylate)], the drug sensitivity score is 2.7 DSS in the assay on OVCAR3, 0 DSS with OVCAR4 and 0 DSS in the assay with Kuramochi.
In the case of `C[C@H]1C[C@H]2[C@@H]3CCC4=CC(=O)C=C[C@]4(C)[C@@]3(F)[C@@H](O)C[C@]2(C)[C@@]1(O)C(=O)CO` [Betamethasone], the drug sensitivity score in the assay with OVCAR3, with OVCAR4 and with Kuramochi was 0 DSS each time.
Take `O=C(O)CCC(=O)c1ccc(-c2ccccc2)cc1` [Fenbufen]: the drug sensitivity score with OVCAR3, with OVCAR4 and in the assay on Kuramochi was 0 DSS throughout.
For `Cc1nc(C(=O)NCC(=O)O)c(O)c2ccc(Oc3ccccc3)cc12` [Roxadustat], the drug sensitivity score in the assay on OVCAR3, with OVCAR4 and in the assay on Kuramochi was 0 DSS throughout.
With `N=C(N)NC(=O)c1nc(Cl)c(N)nc1N` [Amiloride (hydrochloride)], the drug sensitivity score in the assay on OVCAR3, in the assay with OVCAR4 and in the assay with Kuramochi was 0 DSS each time.
Take `CC(C)C[C@H](NC(=O)CNC(=O)c1cc(Cl)ccc1Cl)B(O)O` [Ixazomib]: the drug sensitivity score in the assay with OVCAR3 came to 1.3 DSS; in the assay on OVCAR4, 2.2 DSS; in the assay with Kuramochi it was 1.7 DSS.
The matching figures for `CC(c1cc2ccccc2s1)N(O)C(N)=O` (stereo not given) [Zileuton]: 0 DSS, 0 DSS and 0 DSS.
The corresponding values for `C[C@H](CCC(=O)O)[C@H]1CC[C@H]2[C@@H]3[C@H](O)C[C@@H]4C[C@H](O)CC[C@]4(C)[C@H]3CC[C@]12C` [Chenodeoxycholic Acid] are 0 DSS, 0 DSS and 0 DSS.
For `O=c1ccc2ccc(O)c(O)c2o1` [Daphnetin], the drug sensitivity score with OVCAR3, with OVCAR4 and in the assay with Kuramochi was 0 DSS each time.
Regarding `C=Cc1c(C)c2cc3nc(cc4[nH]c(cc5nc(cc1[nH]2)C(C)=C5CCC(=O)O)c(CCC(=O)OC)c4C)[C@@]1(C)C3=CC=C(C(=O)OC)[C@H]1C(=O)OC.C=Cc1c(C)c2cc3nc(cc4[nH]c(cc5nc(cc1[nH]2)C(C)=C5CCC(=O)OC)c(CCC(=O)O)c4C)[C@@]1(C)C3=CC=C(C(=O)OC)[C@H]1C(=O)OC` [Verteporfin], the drug sensitivity score with OVCAR3, in the assay on OVCAR4 and in the assay with Kuramochi was 0 DSS in each case.
For the compound `CCCc1nc2c(C)cc(-c3nc4ccccc4n3C)cc2n1Cc1ccc(-c2ccccc2C(=O)O)cc1` [Telmisartan], the drug sensitivity score in the assay with OVCAR3, in the assay with OVCAR4 and in the assay with Kuramochi was 0 DSS in each case.
In the case of `CC1(C)CCC2(CC1)N[C@@H](C(=O)N[C@@H]1CC[C@@H](C(N)=O)OC1)[C@H](c1ccnc(Cl)c1F)[C@]21C(=O)Nc2cc(Cl)ccc21` [Milademetan (tosylate hydrate)], the drug sensitivity score with OVCAR3, in the assay on OVCAR4 and in the assay with Kuramochi was 0 DSS in each case.
As for `CC[C@@]1(O)C(=O)OCc2c1cc1n(c2=O)Cc2c-1nc1ccccc1c2CCNC(C)C` [Belotecan (hydrochloride)], the drug sensitivity score in the assay on OVCAR3, in the assay on OVCAR4 and with Kuramochi was 0 DSS in each case.
Take `COCc1c(C(C)C)nc(C(C)C)c(/C=C/[C@@H](O)C[C@@H](O)CC(=O)O)c1-c1ccc(F)cc1` [Cerivastatin (sodium)]: the drug sensitivity score with OVCAR3, in the assay on OVCAR4 and with Kuramochi was 0 DSS throughout.
On to `C[C@H]1[C@@H](O)O[C@@H]2O[C@@]3(C)CC[C@H]4[C@H](C)CC[C@@H]1[C@@]24OO3` [Dihydroartemisinin], for which the drug sensitivity score with OVCAR3, in the assay with OVCAR4 and in the assay with Kuramochi was 0 DSS in each case.
Regarding `COc1ccccc1OCC(O)CN1CCN(CC(=O)Nc2c(C)cccc2C)CC1` (stereo not given) [Ranolazine (dihydrochloride)], the drug sensitivity score with OVCAR3, with OVCAR4 and in the assay on Kuramochi was 0 DSS in each case.
As to `C[C@@H]1CC[C@@]2(OC1)O[C@H]1C[C@H]3[C@@H]4CC=C5C[C@@H](O[C@@H]6O[C@H](CO)[C@@H](O[C@@H]7O[C@@H](C)[C@H](O)[C@@H](O)[C@H]7O)[C@H](O)[C@H]6O[C@@H]6O[C@@H](C)[C@H](O)[C@@H](O)[C@H]6O)CC[C@]5(C)[C@H]4CC[C@]3(C)[C@H]1[C@@H]2C` [Dioscin], the drug sensitivity score was found to be 1.7 DSS with OVCAR3, 2.5 DSS in the assay with OVCAR4 and 2.1 DSS with Kuramochi.
The corresponding values for `CC[C@H](C)C(=O)O[C@H]1C[C@H](O)C=C2C=C[C@H](C)[C@H](CC[C@@H](O)C[C@@H](O)CC(=O)O)[C@H]21` [Pravastatin (sodium)] are 0 DSS, 0 DSS and 0 DSS.
As to `CCCCCN(C)CCC(O)(P(=O)(O)O)P(=O)(O)O` [Ibandronate (Sodium Monohydrate)], the drug sensitivity score with OVCAR3, in the assay with OVCAR4 and in the assay with Kuramochi was 0 DSS in each case.
`CC(C)(CO)[C@@H](O)C(=O)NCCC(=O)O` [D-Pantothenic acid (hemicalcium salt)]: the drug sensitivity score in the assay on OVCAR3, in the assay with OVCAR4 and with Kuramochi was 0 DSS each time.
`CN(C)C/C=C/C(=O)Nc1cc2c(Nc3ccc(F)c(Cl)c3)ncnc2cc1O[C@H]1CCOC1` [Afatinib (dimaleate)]: the drug sensitivity score in the assay on OVCAR3, with OVCAR4 and in the assay on Kuramochi was 0 DSS throughout.
Turning to `Cc1c(N)nc(C(CC(N)=O)NCC(N)C(N)=O)nc1C(=O)NC(C(=O)NC(C)C(O)C(C)C(=O)NC(C(=O)NCCc1nc(-c2nc(C(=O)NCCC[S+](C)C)cs2)cs1)C(C)O)C(O[C@@H]1O[C@@H](CO)[C@@H](O)[C@H](O)[C@@H]1O[C@H]1O[C@H](CO)[C@@H](O)[C@H](OC(N)=O)[C@@H]1O)c1cnc[nH]1` (stereo not given in full) [Bleomycin (sulfate)], the drug sensitivity score in the assay with OVCAR3, in the assay on OVCAR4 and in the assay on Kuramochi was 0 DSS each time.
Turning to `CC[C@H]1OC(=O)[C@H](C)[C@@H](O[C@H]2C[C@@](C)(OC)[C@@H](O)[C@H](C)O2)[C@H](C)[C@@H](O[C@@H]2O[C@H](C)C[C@H](N(C)C)[C@H]2O)[C@](C)(O)C[C@@H](C)CN(C)[C@H](C)[C@@H](O)[C@]1(C)O` [Azithromycin], the drug sensitivity score with OVCAR3, in the assay with OVCAR4 and with Kuramochi was 0 DSS throughout.
As to `O=C(O)c1ccc(-n2nc(-c3ccccc3O)nc2-c2ccccc2O)cc1` [Deferasirox], the drug sensitivity score in the assay with OVCAR3, in the assay with OVCAR4 and with Kuramochi was 0 DSS throughout.
`Cc1cc(C2CCCCC2)n(O)c(=O)c1` [Ciclopirox (olamine)]: the drug sensitivity score in the assay with OVCAR3, in the assay with OVCAR4 and in the assay with Kuramochi was 0 DSS in each case.
`C[C@]12CCC3=C4CCC(=O)C=C4CC[C@H]3[C@@H]1CC[C@@]2(O)CC#N` [Dienogest]: the drug sensitivity score with OVCAR3 is 0.4 DSS; with OVCAR4, 0 DSS; with Kuramochi, 0 DSS.
For the compound `CCCNS(=O)(=O)Nc1ncnc(OCCOc2ncc(Br)cn2)c1-c1ccc(Br)cc1` [Macitentan], the drug sensitivity score with OVCAR3, with OVCAR4 and in the assay on Kuramochi was 0 DSS in each case.
Regarding `NCCS` [Cysteamine hydrochloride], the drug sensitivity score in the assay with OVCAR3 is 0 DSS; in the assay with OVCAR4, 1.8 DSS; in the assay on Kuramochi, 0 DSS.
On to `COc1cc2nccc(Oc3ccc(NC(=O)C4(C(=O)Nc5ccc(F)cc5)CC4)cc3)c2cc1OC` [Cabozantinib (S-malate)], for which the drug sensitivity score with OVCAR3, in the assay with OVCAR4 and in the assay with Kuramochi was 0 DSS each time.
With `CC(C)(C)NCC(O)c1ccc(O)c(CO)c1` (stereo not given) [Salbutamol (hemisulfate)], the drug sensitivity score in the assay on OVCAR3, in the assay with OVCAR4 and in the assay on Kuramochi was 0 DSS in each case.
As for `C[C@@H]1CC[C@H]2[C@@H](C)C(=O)O[C@@H]3O[C@@]4(C)CC[C@@H]1[C@]32OO4` [Artemisinin], the drug sensitivity score in the assay with OVCAR3, with OVCAR4 and in the assay with Kuramochi was 0 DSS in each case.
As to `CCOc1cc(C(C)(C)C)ccc1C1=N[C@@](C)(c2ccc(Cl)cc2)[C@@](C)(c2ccc(Cl)cc2)N1C(=O)N1CCN(CC(=O)N2CCOCC2)CC1`, the drug sensitivity score with OVCAR3, with OVCAR4 and in the assay with Kuramochi was 0 DSS throughout.
On to `CO[C@H]1C[C@@H]2CC[C@@H](C)[C@@](O)(O2)C(=O)C(=O)N2CCCC[C@H]2C(=O)O[C@H]([C@H](C)C[C@@H]2CC[C@@H](OC(=O)C(C)(CO)CO)[C@H](OC)C2)CC(=O)[C@H](C)/C=C(\C)[C@@H](O)[C@@H](OC)C(=O)[C@H](C)C[C@H](C)/C=C/C=C/C=C/1C` [Temsirolimus], for which the drug sensitivity score with OVCAR3, in the assay with OVCAR4 and in the assay on Kuramochi was 0 DSS each time.
